{"source": "PubChem BioAssay AID1259424 – University of Nebraska Medical Center, 2018", "assay": "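Rank knockdowns across the genome by resemblance to the KSR1 depletion profile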 (primary screen)", "system": "human HCT116 colon cancer cells", "knock-down reagent": "siRNA pool against human genes, 50 nM", "measured": "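Six signature mRNAs by branched-DNA multiplex assay, scaled to two housekeeping genes and non-targeting median, log2; matched to mean KSR1 knockdown profile by Pearson correlation and euclidean distance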", "scale": "mean correlation with KSR1 profile: higher = expression change more like KSR1 knockdown; mean distance from KSR1 profile: higher = expression change less like KSR1 knockdown", "note": "The deposit covers about 14,000 reagents; this is a random part of them. 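Higher correlation or smaller distance means closer resemblance to KSR1 loss; control wells, including KSR1 knockdowns, recur on many plates.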 Not all columns of the deposit are shown. Reagent sequences are not shown. Not stated in the record: the time to read-out."}
{"Gene":"FZD9 (frizzled class receptor 9)","mean correlation with KSR1 profile":-0.208,"mean distance from KSR1 profile":3.5}
{"Gene":"ATF4 (activating transcription factor 4)","mean correlation with KSR1 profile":-0.0603,"mean distance from KSR1 profile":2.81}
{"Gene":"CDC42SE1 (CDC42 small effector 1)","mean correlation with KSR1 profile":-0.0165,"mean distance from KSR1 profile":1.94}
{"Gene":"SMYD2 (SET and MYND domain containing 2)","mean correlation with KSR1 profile":-0.101,"mean distance from KSR1 profile":1.37}
{"Gene":"PHF12 (PHD finger protein 12)","mean correlation with KSR1 profile":0.0746,"mean distance from KSR1 profile":2.89}
{"Gene":"KCNE4","mean correlation with KSR1 profile":-0.164,"mean distance from KSR1 profile":2.97}
{"Gene":"ITM2B (integral membrane protein 2B)","mean correlation with KSR1 profile":0.00159,"mean distance from KSR1 profile":1.32}
{"Gene":"TRIM24 (tripartite motif containing 24)","mean correlation with KSR1 profile":-0.0439,"mean distance from KSR1 profile":2.11}
{"Gene":"DNAI2 (dynein axonemal intermediate chain 2)","mean correlation with KSR1 profile":-0.439,"mean distance from KSR1 profile":2.11}
{"Gene":"TRIP6 (thyroid hormone receptor interactor 6)","mean correlation with KSR1 profile":-0.521,"mean distance from KSR1 profile":2.32}

Entries above whose target name starts with T or t:
{"Gene":"TRIM24 (tripartite motif containing 24)","mean correlation with KSR1 profile":-0.0439,"mean distance from KSR1 profile":2.11}
{"Gene":"TRIP6 (thyroid hormone receptor interactor 6)","mean correlation with KSR1 profile":-0.521,"mean distance from KSR1 profile":2.32}

Next entries follow.
{"Gene":"SCN8A (sodium voltage-gated channel alpha subunit 8)","mean correlation with KSR1 profile":0.0302,"mean distance from KSR1 profile":1.62}
{"Gene":"HHLA2 (HHLA2 member of B7 family)","mean correlation with KSR1 profile":-0.396,"mean distance from KSR1 profile":1.44}
{"Gene":"KLF3 (KLF transcription factor 3)","mean correlation with KSR1 profile":0.0766,"mean distance from KSR1 profile":1.73}
{"Gene":"COL4A5 (collagen type IV alpha 5 chain)","mean correlation with KSR1 profile":-0.606,"mean distance from KSR1 profile":2.92}
{"Gene":"NAA80 (N-alpha-acetyltransferase 80, NatH catalytic subunit)","mean correlation with KSR1 profile":-0.706,"mean distance from KSR1 profile":1.78}
{"Gene":"SNX16 (sorting nexin 16)","mean correlation with KSR1 profile":-0.681,"mean distance from KSR1 profile":3.11}
{"Gene":"HOXC5 (homeobox C5)","mean correlation with KSR1 profile":0.0454,"mean distance from KSR1 profile":1.5}
{"Gene":"ADISSP (adipose secreted signaling protein)","mean correlation with KSR1 profile":-0.521,"mean distance from KSR1 profile":2.42}
{"Gene":"KCNJ1 (potassium inwardly rectifying channel subfamily J member 1)","mean correlation with KSR1 profile":-0.375,"mean distance from KSR1 profile":1.57}
{"Gene":"C1GALT1C1 (C1GALT1 specific chaperone 1)","mean correlation with KSR1 profile":0.214,"mean distance from KSR1 profile":1.5}
{"Gene":"HOXD12 (homeobox D12)","mean correlation with KSR1 profile":0.641,"mean distance from KSR1 profile":1.14}
{"Gene":"CSF1R (colony stimulating factor 1 receptor)","mean correlation with KSR1 profile":-0.0866,"mean distance from KSR1 profile":3.16}
{"Gene":"RUBCN (rubicon autophagy regulator)","mean correlation with KSR1 profile":0.284,"mean distance from KSR1 profile":3.6}
{"Gene":"EIF4ENIF1","mean correlation with KSR1 profile":-0.551,"mean distance from KSR1 profile":3}
{"Gene":"SIGLEC12 (sialic acid binding Ig like lectin 12)","mean correlation with KSR1 profile":0.123,"mean distance from KSR1 profile":2.09}
{"Gene":"USP29 (ubiquitin specific peptidase 29)","mean correlation with KSR1 profile":-0.635,"mean distance from KSR1 profile":1.21}
{"Gene":"TMED3 (transmembrane p24 trafficking protein 3)","mean correlation with KSR1 profile":-0.412,"mean distance from KSR1 profile":5.88}
{"Gene":"TMSB10 (thymosin beta 10)","mean correlation with KSR1 profile":-0.514,"mean distance from KSR1 profile":2.1}
